This is an account of results in publication PMC6953139.

The chains behind the UniProt entries cited, without tags or fusion partners.
UniProt Q9UQQ2: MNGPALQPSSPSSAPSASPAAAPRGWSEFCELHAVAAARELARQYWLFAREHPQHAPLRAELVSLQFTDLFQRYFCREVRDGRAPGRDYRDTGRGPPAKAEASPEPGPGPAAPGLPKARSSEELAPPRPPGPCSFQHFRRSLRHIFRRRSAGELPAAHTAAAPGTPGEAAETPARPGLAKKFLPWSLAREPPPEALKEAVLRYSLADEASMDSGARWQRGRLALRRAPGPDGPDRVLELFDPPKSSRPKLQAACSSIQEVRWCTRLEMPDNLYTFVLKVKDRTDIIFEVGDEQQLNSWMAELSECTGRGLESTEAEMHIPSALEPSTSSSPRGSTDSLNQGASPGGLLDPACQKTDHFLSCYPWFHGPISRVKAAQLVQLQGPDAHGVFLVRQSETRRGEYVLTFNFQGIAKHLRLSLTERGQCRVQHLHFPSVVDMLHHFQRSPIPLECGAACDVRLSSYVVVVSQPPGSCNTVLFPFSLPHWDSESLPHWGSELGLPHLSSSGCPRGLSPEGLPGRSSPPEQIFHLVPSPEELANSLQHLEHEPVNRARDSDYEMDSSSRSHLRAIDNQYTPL
UniProt P62258: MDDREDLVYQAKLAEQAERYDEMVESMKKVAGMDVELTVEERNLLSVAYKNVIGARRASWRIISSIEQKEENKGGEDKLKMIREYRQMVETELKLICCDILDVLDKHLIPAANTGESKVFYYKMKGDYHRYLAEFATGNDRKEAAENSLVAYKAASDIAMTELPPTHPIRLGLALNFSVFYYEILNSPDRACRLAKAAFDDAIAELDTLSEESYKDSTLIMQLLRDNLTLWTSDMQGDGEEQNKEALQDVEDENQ

The target in this assay is FLAG-tagged LNK, stably overexpressed in ATC cell lines (UniProt Q9UQQ2). In words: co-IP; lysates of LNK-overexpressing ATC cell lines; antibodies against FLAG or myc overnight at 4 °C, protein A/G agarose beads, rabbit IgG as control; lysis buffer 20 mM Tris-HCl pH 7.5, 150 mM NaCl, 1% Nonidet P-40, 1% sodium deoxycholate; immunoblotting. A general note: In western blotting, separated proteins are transferred to a membrane and probed.

These are yes or no findings as the source states them, for the method shown. In cells and extracts the contact can be indirect. Some entries that bind do so weakly or less than the wild type. Sequences can lack the tags named with a protein.

Turning to “myc-tagged 14-3-3ε (YWHAE) in ATC cells (from UniProt P62258 1-255)”, the binding result is recorded as “binds”.

B1: myc-tagged 14-3-3γ (YWHAG) in ATC cells (protein, UniProt P61981 1-247)
chain: MVDREQLVQKARLAEQAERYDDMAAAMKNVTELNEPLSNEERNLLSVAYKNVVGARRSSWRVISSIEQKTSADGNEKKIEMVRAYREKIEKELEAVCQDVLSLLDNYLIKNCSETQYESKVFYLKMKGDYYRYLAEVATGEKRATVVESSEKAYSEAHEISKEHMQPTHPIRLGLALNYSVFYYEIQNAPEQACHLAKTAFDDAIAELDTLNEDSYKDSTLIMQLLRDNLTLWTSDQQDDDGGEGNN
For the molecule B1, the binding result is reported as “binds”.
